Results taken from doi:10.1101/2022.09.06.506874.
No constants are given. Whether binding was seen depends on the method and setting. Binding seen in cells or lysates may run through a third protein. Here binding means that the protein was enriched with, or labelled near, the bait; the list need not be complete. For some of these results: No binding means not detected with the bait. Sequences can lack the tags named with a protein.

By UniProt entry, the sequences of proteins in these tests, tags left out. Where a name states a change or a piece, a line headed by the entry shows the natural chain unless it says otherwise.
UniProt Q27497: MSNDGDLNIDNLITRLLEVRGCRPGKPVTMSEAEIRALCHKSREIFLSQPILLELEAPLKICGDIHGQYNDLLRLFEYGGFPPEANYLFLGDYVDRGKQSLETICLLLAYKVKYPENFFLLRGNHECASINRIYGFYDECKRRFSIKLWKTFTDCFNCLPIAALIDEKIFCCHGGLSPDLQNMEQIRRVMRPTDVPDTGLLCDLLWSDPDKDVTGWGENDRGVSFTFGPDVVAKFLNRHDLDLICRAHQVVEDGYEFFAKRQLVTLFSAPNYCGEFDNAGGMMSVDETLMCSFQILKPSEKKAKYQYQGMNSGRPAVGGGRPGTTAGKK
UniProt P48727: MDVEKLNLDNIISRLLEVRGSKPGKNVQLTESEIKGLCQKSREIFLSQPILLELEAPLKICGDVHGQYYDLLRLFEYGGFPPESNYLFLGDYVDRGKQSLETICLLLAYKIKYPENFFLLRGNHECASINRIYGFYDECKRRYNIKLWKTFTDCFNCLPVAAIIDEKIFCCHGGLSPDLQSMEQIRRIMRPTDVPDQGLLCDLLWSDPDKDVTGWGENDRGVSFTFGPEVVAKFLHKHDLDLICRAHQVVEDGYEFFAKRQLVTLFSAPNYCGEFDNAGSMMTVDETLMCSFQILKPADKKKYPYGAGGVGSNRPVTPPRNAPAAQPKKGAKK
UniProt Q95PZ1: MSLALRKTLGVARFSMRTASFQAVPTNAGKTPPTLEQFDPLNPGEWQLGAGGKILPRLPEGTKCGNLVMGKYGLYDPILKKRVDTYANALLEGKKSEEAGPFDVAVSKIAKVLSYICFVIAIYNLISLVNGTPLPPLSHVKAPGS

T1: GRAS-1::GFP (C. elegans) (UniProt Q93654)
T1 sequence: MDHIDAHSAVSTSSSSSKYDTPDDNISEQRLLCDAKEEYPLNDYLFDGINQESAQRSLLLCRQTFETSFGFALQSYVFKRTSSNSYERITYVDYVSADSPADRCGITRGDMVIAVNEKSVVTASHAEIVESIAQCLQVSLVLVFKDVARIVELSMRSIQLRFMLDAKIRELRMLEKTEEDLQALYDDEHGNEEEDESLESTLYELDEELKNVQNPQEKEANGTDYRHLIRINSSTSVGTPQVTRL

B1: GRP-1 (protein, UniProt P34512 1-393)
chain: MSSRYSERNGLSETEKMTLPKVRKRKAQLVDEIEALKNEVREVDEELDQVYYTHPKSKEYHKIVVNGRKKFNQDPWKALDWLASRNVVAKDPQALALWMKAGEGLSKSAIGEILGDNRPFALETLDRFTKEHKLHDVPIVPALRQYLFSFRLPGESQKINRILEKFAEVYANQNPSYGNADQAHTVAYSCIMVNTLLHNPNVKDKPSLEKYIEMNEQLLEKGAITIEQLTEVYESVSVTQFKIPDEVSTSGKGTVNDILLHAEREGWLFKQSSNPLFSGALSWKKRWFVLSENCLYYFDQMTDKEPKGIITLANVGIRKVEAPSRPFMFEIFSLSDGQIKACKTEQDGRLVEGRHSIYKICAVNDEDMRSWINAISRMMAPQQHLLARPKSTH
B2: PLK-1 (protein, UniProt P34331 1-648)
chain: MNRLPNIAKPPQKSNQRKEKAPPEVPALIADKDRGTYYEKGRFLGKGGFAHCYELTNRATREVVAGKVVPKSMLVKQYQRDKMTQEVQIHRELGHINIVKLFNFFEDNLNVYITLELCARRSLMELHKRRKAVTEPEARYFTHQIVDGVLYLHDLNIIHRDMKLGNLFLNDDLVVKIGDFGLATTVNGDERKKTLCGTPNYIAPEVLNKAGHSFEVDIWAVGCILYILLFGQPPFESKSLEETYSRIRHNNYTIPSIATQPAASLIRKMLDPEPTRRPTAKQVQRDGFFKSGFMPTRLPVSCLTMVPKFGGHETSMMEENVAPRGVDARSQRPLNGRAGLSALPQHIVSNNADRERAQQQAAEATFREPEDAYLSQLFHQVAVLLEQRIPGLEEEEAALDGYQSPECLPVFWISKWVDYSDKYGIGYQLCDNSVGVLFNDNSRIMLDQAGNELTYIEKSNKEHYFSMHSGEMPGLLNKKVTLLKYFRSYMNDHLVKAGEGSEQRAGDDLARLPTLRVWFRTKSAIVLHLSNGTVQINFFNDHVKMMMCPLMQAVTFIDQNKRMLTYKLNNLQRNGCPEKFLHRLKYAKTMIERLMSDANVVSQNPARQPDMPRSMAAARSASAGSRGPNQAASHLPQSASGSNIHPRR
B3: IMA-3 (protein, UniProt Q19969 1-514)
chain: MSSNRQAYYKNNAKEQIGKEKRNEEVVSIRKDKREEAISKRRNINTQIEDDSETSTTPPGPFDANLLRLTVAAAQSSDPAEQLTAVQQARKMLSTDRNPPIDDLIGSGILPVLVQCLSSTDPNLQFEAAWALTNIASGTSEQTQAVVNAGAVPLFLQLLSCGNLNVCEQSVWALGNIIGDGPHFRDYCLELGILQPLLQFINPEIPIGFLRNVTWVIVNLCRCKDPAPSPAVVRTILPALSLLIHHQDTNILIDTVWALSYLTDGGNEHIQMVIEAQVVTHLVPLLGHVDVKVQTAALRAVGNIVTGTDEQTQLVLDSGVLRFMPGLLAHYKEKINKEAVWFVSNITAGNQQQVQDVFDAGIMPMIIHLLDRGDFPTQKEAAWAISNVTISGRPNQVEQMVKLGVLRPFCAMLSCTDSQIIQVVLDGINNILKMAGEAAEQVTSEIEECGGLDKIENLQNHENEDIYKLAFEIIDNFFSSDDETGNVEGAQSSAFGGDVPPVPDAPNGGWNFGK
B4: separase (protein, UniProt G5ED39 1-1262)
chain: MKITNKSVDKQHIEKLDELRKNVSCTVIGFAEQTAELQQEISELFIAEFGVNGPIDMNSLSKLARITSYYASSEYFQGLAKYQRTACKMFITWQTLRKEAMECRSKDREIFASIPAKLCFFYFYNGELCRAVVCLLDYIDLSDDTLAKEAALRWLMFLGETELIEKKLKTWKMDKSSKDMFSATEFAMNYLKKSEYRVEMLEKLMKLRDKVKSDPTRSFSRYELASYVSWLCSTLSNVPVGSALRECEFPDRVSHIQEAALKSDSLVRNRIPGLASSQFDNSVNASIWPFLDGHQEDSNYYVHIGSTIAWHFEMRRECALVNVTTAQTRDSMSAMILNLRVALKSASFFRVLQTTNTLAYYSSIIEEAGSEKNAKLMRVSCVNLLSSNPIIVRCSTPKETGATSRAHTPMAGSSVSEKQNTMRPDLADLLGDLELLDEQSFHPITRSCVCNVCTIYPLHSSFAAEYMMSYAIHSDFSQLSIKHFNDEFARIRERGMSSQVLMHRDSSVRPRPNIIQNEIFGMCVIRWLTKKLDSKESADEDTMEIFNNALKIVRYLQQRTTDMILAVTQLGRQLEFPMECNYSWMRPTIRKPRVKATIDCAVDILRAVSPFGRRPKVEKLEKNLQPFDKERFEKVRLAMRNEMNHYGHILYREWRCRLFAYVGRTSRDPWEAAYAWAESTQIGARNAVQSRLEKCKRGLVTMSGHDRFKTCVQSMPDEMTLVQIAMADDKTIYLVKLHADRDPIIMPLAHYSQAVELMDKFTFLLDEDEMIAKYPGDITPEEFWKRRKIVDGRMMTFVDEVQKHFLGVAASLLMPSGQLGPKAAELAIKIHKLSKGGLLLGEAKEMVYQSKLMDAKSWEALILRFCEMRTTDEKFKSFLPLMHRNSVEVMNQDDSIVTEKKYTYLVICPHLSQFCWERLPIFDEYPYVGRQVSIHSTFSQLEAMKSQEKQIPLQIDVQNAYYILDPDNNLGETQKRMVEYINKFNWEGTVGSAPKSNEISAALSQRDAFFFIGHGSGSSVMPRSVLKQSTCNAISLLMGCGSVRTIPQALGFDGKTAILDYAMAKCPLIVGCLWTVTDGEIDRFLIRMIDDCFEDSKSLTGIDKLRQLSEAMHEARSKARLKYLTGAAVVMYGLPVVAKQTTPFVEKDQRNLPQTPKTSARTSMRMETVPKTPKQEFVTSKSVPMTPIFSNNENKSPSRARMPSRVLKTPRQVKTFQEEDDEAPKRSTTRQLKPLVAPPIPATPTTRTTRSSARTPSRSRNL
B5: IMA-2 (protein, UniProt P91276 1-531)
chain: MTLTETSLSHNAEEGKDEGGRLQQYKNLTKHEELRRRRTECSVEIRKQKGADMMMKRRNIVDVDEGGNSESELEEPEKISHQQSSTRLSNDEIRAILSNNPSEDDMVRCFESLRKSLSKTKNPPIDEVIHCGLLQALVQALSVENERVQYEAAWALTNIVSGSTEQTIAAVEAGVTIPLIHLSVHQSAQISEQALWAVANIAGDSSQLRDYVIKCHGVEALMHLMEKVDQLGDSHVRTIAWAFSNMCRHKNPHAPLEVLRVLSKGLVKLVQHTDRQVRQDACWAVSYLTDGPDEQIELARESGVLPHVVAFFKEAENLVAPALRTLGNVATGNDSLTQAVIDLGSLDEILPLMEKTRSSSIVKECCWLVSNIIAGTQKQIQAVLDANLLPVLINVLKSGDHKCQFEASWALSNLAQGGTNRQVVAMLEDNVVPALCQALLQTNTDMLNNTLETLYTLMLTVQNGYPHKVDILHDQVEENGGLDSLERLQESQSEQIYTQAYRIITQFFTDDDAGEKESHENADPQDNKWSF
B6: LMN-1 (protein, UniProt Q21443 1-566)
chain: MSSRKGTRSSRIVTLERSANSSLSNNGGGDDSFGSTLLETSRLQEKDHLTSLNSRLATYIDKVRQLEQENNRLQVQIRDIEVVEKKEKSNLADRFEAEKARLRRALDSAQDELAKYRIEYDAAKVEVKKLKPQVEKLERELAGAEEQALHAQSIADQSQAKQKTLQARNDKLVVENDDLKKQNITLRDTVEGLKKAVEDETLLRTAANNKIKALEEDLAFALQQHKGELEEVRHKRQVDMTTYAKQINDEYQSKLQDQIEEMRAQFKNNLHQNKTAFEDAYKNKLNAARERQEEAVSEAIHLRARVRDLETSSSGNASLIERLRSELDTLKRSFQEKLDDKDARIAELNQEIERMMSEFHDLLDVKIQLDAELKTYQALLEGEEERLNLTQEAPQNTSVHHVSFSSGGASAQRGVKRRRVVDVNGEDQDIDYLNRRSKLNKETVGPVGIDEVDEEGKWVRVANNSEEEQSIGGYKLVVKAGNKEASFQFSSRMKLAPHASATVWSADAGAVHHPPEVYVMKKQQWPIGDNPSARLEDSEGDTVSSITVEFSESSDPSDPADRCSIM

Molecular target: T1, GRAS-1::GFP (C. elegans)
Experiment: affinity purification with mass spectrometry

Row | binding | Molecule
1 | no binding | FKB-6
2 | binds | GSP-1 (from UniProt Q27497 1-329)
3 | binds | GSP-2 (from UniProt P48727 1-333)
4 | binds | KASH protein KDP-1 (from UniProt Q95PZ1)
5 | binds | NPP-3
6 | binds | NPP-13
7 | binds | kinesin KLP-17

Molecular target: T1, GRAS-1::GFP (C. elegans)
Experiment: affinity purification with mass spectrometry
Remark: another data set of the same source

Row | binding | Molecule
8 | binds | B1
9 | binds | B2
10 | binds | B3
11 | binds | B4
12 | binds | B5
13 | binds | B6
